Source: PubChem BioAssay AID445 (National Center for Advancing Translational Sciences (NCATS), 2006)
Some of the results follow. The main result of the screen is listed elsewhere. These columns were measured beside it and carry no call. Most of these compounds were active or inconclusive in the main read-out, so they are no random draw. Potencies come from curve fits of mixed quality, noted in brackets.

Assay: IkB Signaling
Conditions: ABC-DLBCL IkBa-CBG/CBR dual luciferase ratio (green luciferase fused to IkBa over red control in OCI-Ly3 lymphoma cells), 4 h
How it was run: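 In this assay, an IκBα–CBG68 fusion accumulates when IKK-driven degradation is blocked; native CBR normalizes for cell number. OCI-Ly3 cells were treated 4 h with compound and doxycycline, then green and red light read after Chroma-Glo addition.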

[1] = measured here: control luc red channel unless noted
[2] = measured here: IkB-luc green channel
[3] = measured here: control luc red channel

Cc1cccc(C(=O)Nc2sc3c(c2C(=O)NC(C)C)CCCC3)c1
AC50 [1]: 10 µM [falling, partial curve]

Cc1ccccc1Cn1cc(/C=N/n2cnnc2)c2ccccc21
AC50 [1]: 15.8 µM [falling, partial curve]

CCOC(=O)c1ccc(NC(=O)CSc2nnc(-c3ccncc3)n2C)cc1
AC50 [2]: 39.8 µM [rising, single point]
AC50 [3]: 39.8 µM [rising, single point]

CCCCN1CCc2c([nH]c3ccccc23)C1=O
AC50 [1]: 20 µM [falling, single point]

CC(C)(C)OC(=O)N1CCC(c2c(C(=O)N3CCCCC3)cnn2-c2cccc(F)c2)CC1
AC50 [1]: 12.6 µM [falling, partial curve]

COc1cc(OC)c(NC(=O)c2noc3c2CSc2ccccc2-3)cc1Cl
AC50 [1]: 25.1 µM [falling, single point]

CCCCn1c(SCC(=O)Nc2ccc(OCC)cc2)nc2ccsc2c1=O
AC50 [1]: 0.158 µM [falling, partial curve, poor fit]

CCc1ccccc1NC(=O)[C@@H](c1ccccc1)N1Cc2ccccc2C1=O
AC50 [1]: 39.8 µM [falling, single point]

CCOc1ccc(-c2oc3ccc(C)cc3c(=O)c2O)cc1
AC50 [1]: 2.51 µM [rising, full curve, poor fit]

c1csc(Cn2nnnc2CN2CCN(c3nc4ccccc4s3)CC2)c1
AC50 [1]: 25.1 µM [falling, partial curve]

O=C(Nc1ccc(F)cc1)C1CCN(S(=O)(=O)c2ccc3c(c2)CCCN3C(=O)C2CCC2)CC1
AC50 [1]: 39.8 µM [falling, single point]

COC(=O)c1c(NC(=O)C2CC2)sc2c1CCCC2
AC50 [1]: 3.98 µM [rising, single point]

CN1CCc2cc(Cl)c(O)cc2[C@@H](c2ccccc2)C1
AC50 [1]: 39.8 µM [falling, partial curve]

CCOC(=O)c1cnc2ccc(C)cc2c1Nc1ccc(N(CC)CC)cc1
AC50 [1]: 12.6 µM [falling, partial curve]

CCOc1ccc(NC(=O)CCCc2nnc3n(C)c(=O)c4sccc4n23)cc1
AC50 [1]: 0.1 µM [rising, full curve, poor fit]

O=C(NCc1ccccc1F)C(=O)NCC(c1ccco1)S(=O)(=O)c1cccs1 (stereo not given)
AC50 [1]: 3.16 µM [rising, single point]

Cc1cccc(OCC(=O)Nc2ccccc2C(=O)OCc2cc(=O)n3nc(C)sc3n2)c1
AC50 [1]: 10 µM [falling, partial curve]

Cc1ccc(CCNC(=O)c2cc3c(-c4ccccc4F)nn(C)c3s2)cc1
AC50 [1]: 12.6 µM [falling, partial curve]

CCOC(=O)c1ccc2nc(C)cc(Nc3ccc(OC(C)C)cc3)c2c1
AC50 [1]: 25.1 µM [falling, single point]

Cc1cccc(C(=O)NCCc2nc3ccccc3n2Cc2ccc(Cl)cc2)c1
AC50 [1]: 31.6 µM [falling, single point]

Cc1ccc(OC(C)C(=O)N2CCN(CCc3ccncc3)CC2)cc1C (stereo not given)
AC50 [1]: 10 µM [falling, partial curve]

Cc1ccc(NC(=O)c2ccc(Cl)cc2Cl)c(C(=O)c2ccccc2)c1
AC50 [1]: 12.6 µM [falling, partial curve]

Oc1ccccc1Nc1nc(NCC2CCCO2)c2ccccc2n1 (stereo not given)
AC50 [2]: 15.8 µM [falling, partial curve]
AC50 [3]: 10 µM [falling, partial curve]

Cc1nc2cccnc2n1C1CCN(C(=O)Nc2ccccc2)CC1
AC50 [1]: 12.6 µM [rising, partial curve]

COc1cc(C(=O)Nc2ccc(-n3c(C)nc4ccccc4c3=O)cc2)cc(OC)c1OC
AC50 [1]: 6.31 µM [falling, partial curve]

COCCCn1c(SCC(=O)N2CCc3ccccc32)nnc1-c1ccoc1C
AC50 [1]: 10 µM [falling, partial curve]

Cc1ccc(-c2noc(-c3ccc(NCc4cccnc4)c([N+](=O)[O-])c3)n2)cc1
AC50 [1]: 39.8 µM [falling, single point]

COc1ccc(CNS(=O)(=O)c2cc(Br)cc3c2N(C(C)=O)C(C)C3)cc1 (stereo not given)
AC50 [1]: 7.94 µM [falling, single point]

CC(=O)C1=C(c2ccc(Cl)c(Cl)c2)N(C(C)=O)n2c(nnc2-c2ccccc2)S1
AC50 [1]: 12.6 µM [falling, partial curve, poor fit]

O=C(COCc1cc(-c2ccc(F)cc2)on1)Nc1cc(Cl)ccc1O
AC50 [1]: 2 µM [falling, full curve]

Cc1ccccc1-n1nc(CO)c(C(=O)NCC(c2ccccc2)c2ccccc2)n1
AC50 [1]: 0.794 µM [falling, partial curve]

COc1ccc(CCNC(=O)CCCn2c(=O)c3ccccc3n(Cc3ccccc3C#N)c2=O)cc1OC
AC50 [1]: 39.8 µM [rising, single point]

Cc1ncsc1CCSc1nc2ccccc2c(=O)n1C
AC50 [1]: 31.6 µM [falling, single point]

COc1cccc(C2C=C(c3ccccc3)Nc3c(C(=O)Nc4ccccc4)cnn32)c1OC (stereo not given)
AC50 [1]: 12.6 µM [falling, partial curve]

CC(=O)Nc1nonc1-c1nnc(SCC(=O)Nc2cc(Cl)ccc2C)n1C
AC50 [1]: 1 µM [falling, partial curve]

COc1cc(OC)cc(C(=O)Nc2ccc(-c3nc4cc(C(C)C)ccc4o3)cc2)c1
AC50 [1]: 0.316 µM [falling, full curve]

Cc1ccc(C)c(N2CCN(S(=O)(=O)c3ccc(-c4coc(C)n4)cc3)CC2)c1
AC50 [1]: 31.6 µM [falling, partial curve]

COc1ccc(-n2cc(-c3ccc4c(c3)OCO4)n(CC(=O)Nc3cccc(C)c3C)c2=O)c(OC)c1
AC50 [1]: 7.94 µM [falling, partial curve]

CCC(c1nnnn1CCc1ccccc1)N(Cc1ccco1)Cc1cc2cccc(C)c2[nH]c1=O (stereo not given)
AC50 [1]: 10 µM [falling, partial curve]

CCOC(=O)c1ccc(N2C(=O)c3n[nH]c(-c4cccs4)c3C2c2ccc(CC)cc2)cc1 (stereo not given)
AC50 [1]: 25.1 µM [falling, single point]

O=S(=O)(Nc1ccc(F)c(Cl)c1)c1ccc(Br)s1
AC50 [1]: 15.8 µM [falling, partial curve]

Cc1cccc(N2CCN(C(=O)Cn3ncc4c5ccccc5n(C)c4c3=O)CC2C)c1 (stereo not given)
AC50 [1]: 15.8 µM [falling, partial curve]

Cc1nc2ccccn2c1-c1csc(NCc2ccco2)n1
AC50 [1]: 12.6 µM [falling, partial curve]

COC(=O)c1cc(NC(=O)c2sc3ccccc3c2Cl)cc(C(=O)OC)c1
AC50 [1]: 3.16 µM [falling, full curve]

CCOc1ccc(-c2nc(CSCC(=O)NCc3ccc(C)cc3)c(C)o2)cc1
AC50 [1]: 25.1 µM [falling, single point]

COC(=O)c1cc2occc2n1CC(=O)Nc1ccc(C)cc1Cl
AC50 [1]: 0.0631 µM [rising, full curve, poor fit]

CC1=CC(C)(C)Nc2ccc(OC(=O)c3cccnc3)cc21
AC50 [1]: 5.01 µM [falling, full curve]

O=C1Nc2ccccc2OC1CC(=O)N1CCN(c2cccc(C(F)(F)F)c2)CC1 (stereo not given)
AC50 [1]: 15.8 µM [falling, partial curve]

O=C(NCC(c1cccnc1)N1CCN(Cc2ccccc2)CC1)C(=O)Nc1cccc(Cl)c1 (stereo not given)
AC50 [1]: 15.8 µM [falling, partial curve]

NC(=O)CSc1nc2c(oc3ccccc32)c(=O)n1Cc1ccccc1
AC50 [1]: 0.0794 µM [falling, partial curve, poor fit]

Cc1ccccc1C(=O)Nc1c(C(=O)Nc2cccc(F)c2)oc2ccccc12
AC50 [1]: 7.94 µM [falling, partial curve, poor fit]

O=C(NCc1ccc2c(c1)OCO2)c1ccc2c(c1)N(Cc1ccccc1F)C(=O)c1ccccc1S2=O (stereo not given)
AC50 [1]: 12.6 µM [falling, partial curve, poor fit]

CCOC(=O)c1c(-c2ccccc2)oc2ccc(N(C(C)=O)S(=O)(=O)c3ccccc3)cc12
AC50 [1]: 3.98 µM [falling, full curve]

Cc1ccc(C(=O)N2CCN(c3cccc(Cl)c3)CC2)cc1C
AC50 [1]: 12.6 µM [falling, partial curve]

COc1ccccc1CNC(=O)C1CCN(C(=O)c2sccc2-n2cccc2)CC1
AC50 [1]: 39.8 µM [falling, single point]

COc1ccccc1CNC(=O)c1cc2c(-c3ccc(Cl)cc3)nn(C)c2s1
AC50 [1]: 3.98 µM [falling, full curve, poor fit]

COCCOC(=O)c1c(C)oc2ccc(OCc3cc(C(=O)OC)oc3C)cc12
AC50 [1]: 25.1 µM [falling, single point]

O=C(CN(c1ccc(Cl)c(C(F)(F)F)c1)S(=O)(=O)c1ccccc1)Nc1cccnc1
AC50 [1]: 31.6 µM [falling, partial curve]

CCc1ccccc1NC(=O)CSc1nnc(-c2ccccc2)c(-c2ccccc2)n1
AC50 [1]: 12.6 µM [falling, partial curve]

CCC1Oc2nc(SC)nnc2-c2ccccc2N1C(=O)c1ccccc1 (stereo not given)
AC50 [1]: 1.58 µM [falling, full curve]

COc1cc(OC)cc(-c2cc3nc(C)c(CCC(=O)Nc4ccccc4OC)c(C)n3n2)c1
AC50 [1]: 10 µM [falling, partial curve]

CCc1ccc2[nH]c(=O)c(CN(Cc3ccc(OC)cc3)Cc3nnnn3CCOC)cc2c1
AC50 [1]: 39.8 µM [falling, single point]

Cc1ccc(C(C)C)c(OCCn2c(=O)oc3ccccc32)c1
AC50 [1]: 20 µM [falling, partial curve]
